Results as given in publication PMC7561103, “Notch dimerization and gene dosage are important for normal heart development, intestinal stem cell maintenance, and splenic marginal zone B-cell homeostasis during mite infestation” (PLoS Biology, 2020).
Substitutions are numbered along the chain they refer to. Names and notes keep the numbering of the source. These are yes or no findings as the source states them, for the method shown.

B1: mouse N1ICD (aa 1744–2113) (domain or fragment, UniProt Q01705 1744-2113, looked up)
chain: VLLSRKRRRQHGQLWFPEGFKVSEASKKKRREPLGEDSVGLKPLKNASDGALMDDNQNEWGDEDLETKKFRFEEPVVLPDLSDQTDHRQWTQQHLDAADLRMSAMAPTPPQGEVDADCMDVNVRGPDGFTPLMIASCSGGGLETGNSEEEEDAPAVISDFIYQGASLHNQTDRTGETALHLAARYSRSDAAKRLLEASADANIQDNMGRTPLHAAVSADAQGVFQILLRNRATDLDARMHDGTTPLILAARLAVEGMLEDLINSHADVNAVDDLGKSALHWAAAVNNVDAAVVLLKNGANKDMQNNKEETPLFLAAREGSYETAKVLLDHFANRDITDHMDRLPRDIAQERMHHDIVRLLDEYNLVRSPQ
notes: Notch1 intracellular domain (RAM-ANK), mouse, residues 1744-2113; also called N1 RAM-ANK domain; WT N1ICD
B2: mouse N1^RAICD (aa 1744–2113) (domain or fragment, UniProt Q01705 1744-2113, looked up)
chain: B1 chain with R231A
notes: Notch1 intracellular domain (RAM-ANK), mouse, residues 1744-2113, with Arg1974 in the ANK domain changed to alanine; also called RA mutant; N1^R1974A

Assays:
[1] = molecular target: mouse N1ICD (aa 1744–2113) (mouse) (UniProt Q01705); assay: native gel or EMSA; 2xCSL probe; band intensities fitted to a 2-site binding model with cooperativity factor C; RBPj 2.5 to 640 nM, N1ICD and MAML at 2 uM; association of two NTCs on DNA; both purified
[2] = molecular target: mouse N1^RAICD (aa 1744–2113) (mouse) (UniProt Q01705); assay: native gel or EMSA; 1xSPS probe; band intensities fitted to a 2-site binding model with cooperativity factor C (Kd,2nd = Kd,1st/C); RBPj 2.5 to 640 nM, N1ICD and MAML at 2 uM; association of two NTCs on DNA; both purified
[3] = molecular target: mouse N1^RAICD (aa 1744–2113) (mouse) (UniProt Q01705); assay: native gel or EMSA; 2xCSL probe; band intensities fitted to a 2-site binding model with cooperativity factor C; RBPj 2.5 to 640 nM, N1ICD and MAML at 2 uM; association of two NTCs on DNA; both purified

Binder	binding [1]	binding [2]	binding [3]
B1	no binding (condition: on the 2xCSL probe)		
B2		no binding (tested: N1^RAICD at 2 uM, RBPj up to 640 nM)	no binding (condition: on the 2xCSL probe)
